Data published in the supplement of paper PMC12823440, “Inhibitors supercharge kinase turnover through native proteolytic circuits” (Nature, 2025).
The other results are listed elsewhere or left out. The calls rarely recur for the same compound in another form.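 Kinases, fused to nanoluciferase, were expressed in K562 cells; luminescence was measured every 4 h from 2 to 18 h as percent of control (DMSO = 100%, positive control = 0%). A time point is decreased if signal falls significantly (2 sigma). Hits were called by the authors by a rule that is not shown; the count of time points alone does not decide it.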

Amino acid sequences for entries named in this document (tags omitted). A change or cut given only in a name is not applied to a line headed by its entry.
UniProt Q16620, whole entry, looked up: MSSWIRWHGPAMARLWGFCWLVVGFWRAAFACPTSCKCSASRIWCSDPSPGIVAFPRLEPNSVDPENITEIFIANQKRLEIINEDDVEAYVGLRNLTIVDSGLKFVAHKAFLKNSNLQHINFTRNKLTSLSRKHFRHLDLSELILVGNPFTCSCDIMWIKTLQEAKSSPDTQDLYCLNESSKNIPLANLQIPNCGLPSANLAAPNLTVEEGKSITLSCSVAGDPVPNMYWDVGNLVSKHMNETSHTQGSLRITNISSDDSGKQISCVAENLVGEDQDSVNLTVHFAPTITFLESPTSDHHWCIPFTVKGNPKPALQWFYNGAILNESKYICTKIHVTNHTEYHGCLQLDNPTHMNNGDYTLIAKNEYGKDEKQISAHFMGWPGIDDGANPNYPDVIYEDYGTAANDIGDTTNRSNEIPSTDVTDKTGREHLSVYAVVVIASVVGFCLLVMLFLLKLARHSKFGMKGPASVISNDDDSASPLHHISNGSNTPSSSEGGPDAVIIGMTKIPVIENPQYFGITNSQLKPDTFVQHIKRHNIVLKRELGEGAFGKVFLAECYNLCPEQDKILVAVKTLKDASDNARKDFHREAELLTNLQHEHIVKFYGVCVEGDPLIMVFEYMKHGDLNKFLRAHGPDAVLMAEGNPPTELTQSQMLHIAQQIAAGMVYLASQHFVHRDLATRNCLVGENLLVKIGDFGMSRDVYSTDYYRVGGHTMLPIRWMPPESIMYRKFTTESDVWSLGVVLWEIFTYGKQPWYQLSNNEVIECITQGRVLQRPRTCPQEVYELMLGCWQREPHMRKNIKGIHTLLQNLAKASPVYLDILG
UniProt Q16288, whole entry, looked up: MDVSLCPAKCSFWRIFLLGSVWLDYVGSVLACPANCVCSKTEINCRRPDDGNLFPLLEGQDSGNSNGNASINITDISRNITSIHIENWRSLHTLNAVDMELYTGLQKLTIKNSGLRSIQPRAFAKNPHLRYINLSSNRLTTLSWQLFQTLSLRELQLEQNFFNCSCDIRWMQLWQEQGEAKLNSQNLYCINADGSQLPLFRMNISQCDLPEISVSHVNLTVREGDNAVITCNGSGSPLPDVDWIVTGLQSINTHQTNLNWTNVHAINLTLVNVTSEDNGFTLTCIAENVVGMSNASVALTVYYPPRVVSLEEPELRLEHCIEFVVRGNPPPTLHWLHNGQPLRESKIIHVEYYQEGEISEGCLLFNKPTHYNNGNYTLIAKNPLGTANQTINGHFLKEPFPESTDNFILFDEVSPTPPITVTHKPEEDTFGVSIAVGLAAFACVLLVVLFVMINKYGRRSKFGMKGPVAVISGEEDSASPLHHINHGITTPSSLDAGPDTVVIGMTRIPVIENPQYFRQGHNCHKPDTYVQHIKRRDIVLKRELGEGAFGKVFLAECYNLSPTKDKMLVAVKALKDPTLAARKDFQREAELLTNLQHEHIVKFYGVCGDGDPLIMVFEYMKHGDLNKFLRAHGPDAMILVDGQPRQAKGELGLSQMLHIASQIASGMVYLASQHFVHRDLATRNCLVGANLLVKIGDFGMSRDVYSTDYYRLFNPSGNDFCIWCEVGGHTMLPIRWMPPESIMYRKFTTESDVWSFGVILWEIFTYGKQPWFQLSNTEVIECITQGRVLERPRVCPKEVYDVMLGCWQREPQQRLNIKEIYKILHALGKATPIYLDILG
UniProt Q96KB5: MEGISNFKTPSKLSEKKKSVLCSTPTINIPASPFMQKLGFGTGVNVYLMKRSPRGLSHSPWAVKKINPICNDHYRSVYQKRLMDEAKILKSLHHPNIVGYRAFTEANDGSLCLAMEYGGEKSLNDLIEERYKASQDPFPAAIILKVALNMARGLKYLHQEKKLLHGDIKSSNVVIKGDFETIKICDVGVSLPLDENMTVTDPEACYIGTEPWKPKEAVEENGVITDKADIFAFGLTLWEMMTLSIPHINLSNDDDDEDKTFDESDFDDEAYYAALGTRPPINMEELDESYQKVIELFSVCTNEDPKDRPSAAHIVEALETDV
UniProt O15530: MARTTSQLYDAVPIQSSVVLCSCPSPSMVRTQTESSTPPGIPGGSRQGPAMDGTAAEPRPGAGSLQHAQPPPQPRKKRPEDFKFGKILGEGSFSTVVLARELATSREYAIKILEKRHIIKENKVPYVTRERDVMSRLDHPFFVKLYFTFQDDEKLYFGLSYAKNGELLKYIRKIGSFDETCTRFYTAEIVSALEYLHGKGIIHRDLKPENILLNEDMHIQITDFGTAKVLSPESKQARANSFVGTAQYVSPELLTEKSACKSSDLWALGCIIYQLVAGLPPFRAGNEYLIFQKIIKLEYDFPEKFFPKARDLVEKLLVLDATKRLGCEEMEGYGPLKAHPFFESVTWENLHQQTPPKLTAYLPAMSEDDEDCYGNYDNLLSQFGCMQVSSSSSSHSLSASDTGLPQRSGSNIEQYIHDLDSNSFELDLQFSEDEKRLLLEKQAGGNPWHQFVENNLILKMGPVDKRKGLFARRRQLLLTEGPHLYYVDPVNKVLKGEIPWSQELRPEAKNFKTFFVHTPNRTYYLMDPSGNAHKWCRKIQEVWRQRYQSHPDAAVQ
UniProt P42356, whole entry, looked up: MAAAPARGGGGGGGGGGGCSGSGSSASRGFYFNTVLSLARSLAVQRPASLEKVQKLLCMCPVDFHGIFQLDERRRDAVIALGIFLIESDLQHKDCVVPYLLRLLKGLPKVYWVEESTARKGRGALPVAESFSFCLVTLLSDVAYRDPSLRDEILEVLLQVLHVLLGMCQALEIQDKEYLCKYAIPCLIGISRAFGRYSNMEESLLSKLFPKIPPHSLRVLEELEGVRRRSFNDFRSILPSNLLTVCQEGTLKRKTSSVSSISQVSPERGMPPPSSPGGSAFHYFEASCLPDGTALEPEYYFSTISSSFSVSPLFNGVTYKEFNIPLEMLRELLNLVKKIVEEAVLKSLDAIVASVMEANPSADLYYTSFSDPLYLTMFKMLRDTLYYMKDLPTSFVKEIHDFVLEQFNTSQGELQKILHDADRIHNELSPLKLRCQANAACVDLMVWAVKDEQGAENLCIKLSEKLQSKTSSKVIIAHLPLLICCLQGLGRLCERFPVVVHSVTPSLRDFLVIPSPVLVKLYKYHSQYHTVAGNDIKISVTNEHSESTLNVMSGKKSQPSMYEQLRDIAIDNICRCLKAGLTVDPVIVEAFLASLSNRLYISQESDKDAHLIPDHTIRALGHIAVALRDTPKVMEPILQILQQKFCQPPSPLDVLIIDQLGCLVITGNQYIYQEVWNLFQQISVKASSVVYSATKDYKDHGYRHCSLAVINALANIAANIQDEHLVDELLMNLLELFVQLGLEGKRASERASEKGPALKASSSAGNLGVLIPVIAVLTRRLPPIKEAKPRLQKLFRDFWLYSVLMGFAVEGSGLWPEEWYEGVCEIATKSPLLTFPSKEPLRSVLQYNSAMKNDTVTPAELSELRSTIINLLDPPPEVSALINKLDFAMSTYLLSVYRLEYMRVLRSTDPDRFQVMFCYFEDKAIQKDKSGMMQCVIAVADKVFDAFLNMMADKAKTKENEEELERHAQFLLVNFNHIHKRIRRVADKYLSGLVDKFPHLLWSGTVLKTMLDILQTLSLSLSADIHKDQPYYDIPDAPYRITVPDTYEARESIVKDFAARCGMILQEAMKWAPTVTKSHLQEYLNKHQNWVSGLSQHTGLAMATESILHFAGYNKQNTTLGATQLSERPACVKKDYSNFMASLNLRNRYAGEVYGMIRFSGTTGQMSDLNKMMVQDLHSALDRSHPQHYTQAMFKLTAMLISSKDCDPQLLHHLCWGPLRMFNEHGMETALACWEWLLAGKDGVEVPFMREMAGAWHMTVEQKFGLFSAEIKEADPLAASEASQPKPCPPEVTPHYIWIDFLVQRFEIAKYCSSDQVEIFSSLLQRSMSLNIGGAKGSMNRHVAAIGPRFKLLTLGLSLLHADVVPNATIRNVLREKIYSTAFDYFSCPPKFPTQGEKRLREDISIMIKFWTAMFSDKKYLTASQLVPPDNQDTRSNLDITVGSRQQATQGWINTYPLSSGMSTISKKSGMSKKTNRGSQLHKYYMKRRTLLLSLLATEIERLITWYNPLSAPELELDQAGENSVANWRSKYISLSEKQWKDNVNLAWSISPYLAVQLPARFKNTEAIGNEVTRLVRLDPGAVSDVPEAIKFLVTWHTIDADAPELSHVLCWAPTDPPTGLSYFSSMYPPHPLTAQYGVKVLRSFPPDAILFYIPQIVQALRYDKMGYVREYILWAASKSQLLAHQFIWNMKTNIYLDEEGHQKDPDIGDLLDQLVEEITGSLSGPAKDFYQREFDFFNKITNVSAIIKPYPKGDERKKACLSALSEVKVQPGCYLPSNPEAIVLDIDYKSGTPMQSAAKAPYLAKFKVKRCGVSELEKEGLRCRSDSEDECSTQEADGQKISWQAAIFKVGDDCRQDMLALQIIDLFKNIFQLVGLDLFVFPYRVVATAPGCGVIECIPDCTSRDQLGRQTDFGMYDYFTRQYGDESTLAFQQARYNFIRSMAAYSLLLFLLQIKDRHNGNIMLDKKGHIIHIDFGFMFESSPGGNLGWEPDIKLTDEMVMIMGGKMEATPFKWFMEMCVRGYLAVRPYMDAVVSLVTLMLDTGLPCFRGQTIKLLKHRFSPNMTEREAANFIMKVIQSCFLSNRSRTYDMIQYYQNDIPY
UniProt Q14289, whole entry, looked up: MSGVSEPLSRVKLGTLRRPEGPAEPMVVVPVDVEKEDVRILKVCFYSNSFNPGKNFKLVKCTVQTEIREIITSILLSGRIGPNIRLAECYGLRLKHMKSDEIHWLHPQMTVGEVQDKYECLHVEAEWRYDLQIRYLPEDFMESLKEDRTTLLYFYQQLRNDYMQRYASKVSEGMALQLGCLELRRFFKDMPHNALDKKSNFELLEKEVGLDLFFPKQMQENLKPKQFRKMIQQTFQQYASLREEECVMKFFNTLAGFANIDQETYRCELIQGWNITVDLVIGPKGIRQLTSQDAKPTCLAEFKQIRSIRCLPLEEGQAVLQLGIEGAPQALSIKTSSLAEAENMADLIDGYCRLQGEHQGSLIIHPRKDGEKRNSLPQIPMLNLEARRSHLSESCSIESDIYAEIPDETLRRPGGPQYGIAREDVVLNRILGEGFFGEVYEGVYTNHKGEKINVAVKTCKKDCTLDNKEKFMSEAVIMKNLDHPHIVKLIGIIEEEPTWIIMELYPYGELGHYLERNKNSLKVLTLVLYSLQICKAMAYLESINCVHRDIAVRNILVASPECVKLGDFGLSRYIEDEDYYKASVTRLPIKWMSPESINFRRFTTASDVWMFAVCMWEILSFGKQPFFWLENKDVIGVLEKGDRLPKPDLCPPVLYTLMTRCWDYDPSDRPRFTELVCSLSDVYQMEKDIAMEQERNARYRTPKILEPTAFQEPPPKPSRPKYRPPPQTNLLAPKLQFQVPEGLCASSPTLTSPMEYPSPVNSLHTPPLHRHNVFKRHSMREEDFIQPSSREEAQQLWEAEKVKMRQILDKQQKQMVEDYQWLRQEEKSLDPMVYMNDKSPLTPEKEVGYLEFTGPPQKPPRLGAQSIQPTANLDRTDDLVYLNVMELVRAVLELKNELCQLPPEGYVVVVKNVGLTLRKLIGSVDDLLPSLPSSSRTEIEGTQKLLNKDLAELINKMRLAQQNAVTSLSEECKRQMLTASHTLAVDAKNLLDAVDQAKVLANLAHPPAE

How the values were obtained:
Assay in all cases: kinase-Nluc reporter destabilization hit call (1 = scored as downregulated) (binary); higher = compound decreases kinase abundance
Settings in all cases: K562, 2-18 h
[1] = molecular target: MAPK1 (UniProt P28482)
[2] = molecular target: MAPK4 (UniProt P31152)
[3] = molecular target: MAPKAPK2 (UniProt P49137)
[4] = molecular target: MKNK1 (UniProt Q9BUB5)
[5] = molecular target: NTRK2 (UniProt Q16620)
[6] = molecular target: NTRK3 (UniProt Q16288)
[7] = molecular target: PAK4 (UniProt O96013)
[8] = molecular target: PBK (UniProt Q96KB5)
[9] = molecular target: PDK1 (UniProt Q15118)
[10] = molecular target: PDPK1 (UniProt O15530)
[11] = molecular target: PIK4CA (UniProt P42356)
[12] = molecular target: PIK4CB (UniProt Q9UBF8)
[13] = molecular target: PLK1 (UniProt P53350)
[14] = molecular target: PRKAA1 (UniProt Q13131)
[15] = molecular target: PRKCA (UniProt P17252)
[16] = molecular target: PTK2 (UniProt Q05397)
[17] = molecular target: PTK2B (UniProt Q14289)
[18] = molecular target: RAF1 (UniProt P04049)
[19] = molecular target: RAF1_S257L (clone: RAF1_mut) (UniProt P04049)
[20] = molecular target: PDGFRB (UniProt P09619)

Measured: kinase-Nluc reporter destabilization hit call

COc1cc2ncnc(Nc3cccc(Br)c3)c2cc1OC
inactive: [1]; 10 µM 0 | [2]; 10 µM 0 | [3]; 10 µM 0 | [4]; 10 µM 0 | [5]; 10 µM 0 | [6]; 10 µM 0 | [7]; 10 µM 0 | [8]; 10 µM 0 | [9]; 10 µM 0 | [10]; 10 µM 0 | [11]; 10 µM 0 | [12]; 10 µM 0 | [13]; 10 µM 0 | [14]; 10 µM 0 | [15]; 10 µM 0 | [16]; 10 µM 0 | [17]; 10 µM 0 | [18]; 10 µM 0 | [19]; 10 µM 0

CNC(=O)c1cc(Oc2ccc(NC(=O)Nc3ccc(Cl)c(C(F)(F)F)c3)cc2)ccn1 [Sorafenib]
inactive: [1]; 2.5 µM 0 | [2]; 2.5 µM 0 | [3]; 2.5 µM 0 | [4]; 2.5 µM 0 | [5]; 2.5 µM 0 | [7]; 2.5 µM 0 | [8]; 2.5 µM 0 | [20]; 2.5 µM 0 | [9]; 2.5 µM 0 | [10]; 2.5 µM 0 | [11]; 2.5 µM 0 | [12]; 2.5 µM 0 | [13]; 2.5 µM 0 | [14]; 2.5 µM 0 | [15]; 2.5 µM 0 | [16]; 2.5 µM 0 | [17]; 2.5 µM 0 | [18]; 2.5 µM 0 | [19]; 2.5 µM 0

CNC(=O)c1cc(Oc2ccc(NC(=O)Nc3ccc(Cl)c(C(F)(F)F)c3)cc2)ccn1 [Sorafenib (Tosylate)]
inactive: [1]; 10 µM 0 | [2]; 10 µM 0 | [3]; 10 µM 0 | [4]; 10 µM 0 | [5]; 10 µM 0 | [7]; 10 µM 0 | [8]; 10 µM 0 | [20]; 10 µM 0 | [9]; 10 µM 0 | [10]; 10 µM 0 | [11]; 10 µM 0 | [12]; 10 µM 0 | [13]; 10 µM 0 | [14]; 10 µM 0 | [15]; 10 µM 0 | [16]; 10 µM 0 | [17]; 10 µM 0 | [18]; 10 µM 0 | [19]; 10 µM 0

CCCOc1ccc(C=C2SC(=O)NC2=O)cc1
inactive: [1]; 10 µM 0 | [2]; 10 µM 0 | [3]; 10 µM 0 | [4]; 10 µM 0 | [5]; 10 µM 0 | [6]; 10 µM 0 | [7]; 10 µM 0 | [8]; 10 µM 0 | [20]; 10 µM 0 | [9]; 10 µM 0 | [10]; 10 µM 0 | [11]; 10 µM 0 | [12]; 10 µM 0 | [13]; 10 µM 0 | [14]; 10 µM 0 | [15]; 10 µM 0 | [16]; 10 µM 0 | [17]; 10 µM 0 | [18]; 10 µM 0 | [19]; 10 µM 0

COc1cc(Nc2c(C#N)cnc3cc(OCCCN4CCN(C)CC4)c(OC)cc23)c(Cl)cc1Cl [Bosutinib]
active: [19]; 2.5 µM 1
inactive: [1]; 2.5 µM 0 | [2]; 2.5 µM 0 | [3]; 2.5 µM 0 | [4]; 2.5 µM 0 | [5]; 2.5 µM 0 | [7]; 2.5 µM 0 | [8]; 2.5 µM 0 | [20]; 2.5 µM 0 | [9]; 2.5 µM 0 | [10]; 2.5 µM 0 | [11]; 2.5 µM 0 | [12]; 2.5 µM 0 | [13]; 2.5 µM 0 | [14]; 2.5 µM 0 | [15]; 2.5 µM 0 | [16]; 2.5 µM 0 | [17]; 2.5 µM 0 | [18]; 2.5 µM 0

Cc1cn(-c2cc(NC(=O)c3ccc(C)c(Nc4nccc(-c5cccnc5)n4)c3)cc(C(F)(F)F)c2)cn1 [Nilotinib]
inactive: [1]; 2.5 µM 0 | [2]; 2.5 µM 0 | [3]; 2.5 µM 0 | [4]; 2.5 µM 0 | [5]; 2.5 µM 0 | [7]; 2.5 µM 0 | [8]; 2.5 µM 0 | [20]; 2.5 µM 0 | [9]; 2.5 µM 0 | [10]; 2.5 µM 0 | [11]; 2.5 µM 0 | [12]; 2.5 µM 0 | [13]; 2.5 µM 0 | [14]; 2.5 µM 0 | [15]; 2.5 µM 0 | [16]; 2.5 µM 0 | [17]; 2.5 µM 0 | [18]; 2.5 µM 0 | [19]; 2.5 µM 0

Cc1cc(Nc2cc(N3CCN(C)CC3)nc(/C=C/c3ccccc3)n2)n[nH]1 [ENMD-2076 (Tartrate)]
inactive: [1]; 2.5 µM 0 | [2]; 2.5 µM 0 | [3]; 2.5 µM 0 | [4]; 2.5 µM 0 | [5]; 2.5 µM 0 | [6]; 2.5 µM 0 | [7]; 2.5 µM 0 | [8]; 2.5 µM 0 | [9]; 2.5 µM 0 | [10]; 2.5 µM 0 | [11]; 2.5 µM 0 | [12]; 2.5 µM 0 | [13]; 2.5 µM 0 | [14]; 2.5 µM 0 | [15]; 2.5 µM 0 | [17]; 2.5 µM 0 | [18]; 2.5 µM 0 | [19]; 2.5 µM 0

Cc1ccc(O)cc1Nc1ccnc(Nc2cccc(C(N)=O)c2)n1 [Lck inhibitor 2]
inactive: [1]; 10 µM 0 | [2]; 10 µM 0 | [3]; 10 µM 0 | [4]; 10 µM 0 | [5]; 10 µM 0 | [6]; 10 µM 0 | [7]; 10 µM 0 | [8]; 10 µM 0 | [20]; 10 µM 0 | [9]; 10 µM 0 | [10]; 10 µM 0 | [11]; 10 µM 0 | [12]; 10 µM 0 | [13]; 10 µM 0 | [14]; 10 µM 0 | [15]; 10 µM 0 | [16]; 10 µM 0 | [17]; 10 µM 0 | [18]; 10 µM 0 | [19]; 10 µM 0

O=C(c1ccc(/C=C/c2n[nH]c3ccccc23)cc1)N1CCNCC1
inactive: [1]; 2.5 µM 0 | [2]; 2.5 µM 0 | [3]; 2.5 µM 0 | [4]; 2.5 µM 0 | [5]; 2.5 µM 0 | [7]; 2.5 µM 0 | [8]; 2.5 µM 0 | [20]; 2.5 µM 0 | [9]; 2.5 µM 0 | [10]; 2.5 µM 0 | [11]; 2.5 µM 0 | [12]; 2.5 µM 0 | [13]; 2.5 µM 0 | [14]; 2.5 µM 0 | [15]; 2.5 µM 0 | [16]; 2.5 µM 0 | [17]; 2.5 µM 0 | [18]; 2.5 µM 0 | [19]; 2.5 µM 0
